± gives the standard deviation of the averaged measurements. Most values lie at the floor of the assay. Slopes are relative: functional sequences can read slightly below zero.
Tested on: Saccharomyces cerevisiae PS128 hsf1 delta, HSF1(1-493) fusion
Assay: growth estimate (transactivation domain function in HSF1 fusion, heat-shock survival) (a.u. (slope of normalised read count over time)); higher = stronger growth at 37°C, i.e. more transactivation activity
Conditions: library: random library

Substance	growth estimate
LSHHGLLPTVAGLPSLIGLT	< -0.25
LSHPSVS	< -0.25
LSHQLGGGGTLF	0.106
LSI	< -0.25
LSIDSLLTVGSCFQMSTQTC	< -0.25
LSIGLV	< -0.25
LSIGRTGGSPRESAIGRST	< -0.25
LSIKYEPVSLSKGFSAVERG	-0.228
LSIRENASSVGYACERVSRG	< -0.25
LSITCGIVTQLRIGQANKIN	< -0.25
LSKFATF	< -0.25
LSKKCSLLRQSI	< -0.25
LSLERAPCNGVRSR	< -0.25
LSLGFAFKDRGNR	< -0.25
LSLILTRAMKVKSWDMNIVL	< -0.25
LSLSAG	< -0.25
LSLTWN	< -0.25
LSLVSESYQAHEPLLRSLQP	< -0.25
LSLWVWYFPQMSSATMVQRT	< -0.25
LSNACRVTWEIRARLFIGMF	< -0.25
LSPCAQSWACYLHGTVCLPG	-0.246
LSPKEPQCV	< -0.25
LSPLSHTLGVQWRKRAGVWR	< -0.25
LSPSRYRKLLHAAKGRSYPE	< -0.25
LSQPSCIN	< -0.25

Substance	growth estimate
LSQQARTDVVFTTLSHLKPR	< -0.25
LSQYWRTPLASSQVGKLFKP	< -0.25
LSR	< -0.25
LSRFSSGVAGLPVDEEKVLR	< -0.25
LSRLLKTPQERARGWISGRW	< -0.25
LSRPTFSLHGFRLRRAVKSY	< -0.25
LSRSS	< -0.25
LSSFCRGEQTDLVLASHKAI	< -0.25
LSSIHWDGRRPDCLCYKPAG	-0.229
LSSRTSSVTPLVRWDGNVLK	< -0.25
LSSSCFSITNVLYKHNHFLC	< -0.25
LSSSFSMGSGICMLGTRNTN	< -0.25
LSTEQLCRQDRYH	< -0.25
LSTEYEIRCQSRMSACRILD	< -0.25
LSTGMVGKGVMKSRPSNMMI	< -0.25
LSTHLECLQCQGSPHPPDAP	< -0.25
LSTNEPPCASWLVGCR	< -0.25
LSTRSQRQVTTNPAFPRSTA	< -0.25
LSTSARPVGCWR	< -0.25
LSVILRWVRLH	< -0.25
LSVISPCSDRSRRCGCATYE	< -0.25
LSVKWEGIERLGGKR	< -0.25
LSVSMRLNTGNRAWVKTRRD	< -0.25
LSWGDVSGAGLARDYPLKLD	0.146
LSYGGF	< -0.25

Part of the list above, comma-delimited.
Substance,growth estimate
LSVILRWVRLH,< -0.25
LSVISPCSDRSRRCGCATYE,< -0.25

Going on with the list.

Substance	growth estimate
LSYSAISTSPRGLRLSNARR	< -0.25
LSYYIWPQGATGVE	< -0.25
LTAFSCWEEGKVE	0.145
LTAFSGVQDQNFRDLSKNP	< -0.25
LTAP	< -0.25
LTASCVDGY	< -0.25
LTCRQRGG	-0.242
LTDSSPNFPEGKRVIN	< -0.25
LTELCLVRQRFS	< -0.25
LTFQSSWDTPLARDADPRQS	< -0.25
LTGAMTFSAGSTTYVGESRL	< -0.25
LTGKGGNQGDGRGR	< -0.25
LTGTESDNGTNLFVYFFPTF	< -0.25
LTGTWHIKACVGHDGLVGGT	< -0.25
LTHLQLGNSAWIKCRKSEAV	< -0.25
LTISEVVAVTRAPNRSGCIR	< -0.25
LTISHPGCRTTVSACRMGLS	< -0.25
LTIVACYVREHITHN	< -0.25
LTIWKAPRSYFSAKQKSMKC	< -0.25
LTLHEGSTRGSL	< -0.25
LTLLVIHEGIKPGFASLVRF	< -0.25
LTLSTLVSREANAEDRAYAG	-0.226
LTLVPAHAWGFPGRCVSNTR	< -0.25
LTPA	< -0.25
LTPSSLSG	< -0.25

Substance	growth estimate
LTPSV	< -0.25
LTPVYGSLSGCPRSLRWELN	< -0.25
LTQKRASST	< -0.25
LTRIVSLIGKDPELKQL	-0.205
LTRRHLKGPSFVTRNPSQHA	< -0.25
LTRRVSGARGIGARAGRPEG	< -0.25
LTRT	< -0.25
LTRTGEPGACSEDRLRRHTR	< -0.25
LTRTVKKHLPFIAGPERDVA	< -0.25
LTRVRVTGGAA	< -0.25
LTSALVGRGETGLFFHLKRV	< -0.25
LTSANSHGNLRTVEGLSYNK	< -0.25
LTSARTTVTLRIKKRRDSQS	< -0.25
LTSESLAHLGTL	< -0.25
LTSFACLGQKSKSNRRTKHA	< -0.25
LTSLSPCPWRLVCLPGWGRQ	< -0.25
LTSTGGG	< -0.25
LTTGQDFSGRRMPRKYRDRM	< -0.25
LTTQR	-0.226
LTVPGMGTLEMLSLTLSAIA	-0.241
LTVYDCCPKPFCKSSS	< -0.25
LTYAISPARTIRTGH	< -0.25
LTYVAYPTAPTVGGSNVGSL	0.0084
LVA	< -0.25
LVAGVGGGVLVWCGKSPQDV	< -0.25

Substance	growth estimate
LVAPGDRGLLGGRPNLRGSA	< -0.25
LVCRIFRVRQT	< -0.25
LVDLSVRGQLGRKKP	< -0.25
LVDTFRTRIYESM	< -0.25
LVEGSVLTVSRNISYSGFEL	< -0.25
LVERDRTLGVER	< -0.25
LVEVPS	< -0.25
LVFAGKVSPHRQVGQFLLLS	< -0.25
LVFAINSRSIPV	< -0.25
LVFHRHTGLYIILDMAIVIT	< -0.25
LVFHRVCSTVGD	< -0.25
LVFITESSLRQVGHSV	< -0.25
LVFRFRYFGKWVFVE	-0.246
LVFRQIQRRGAWAGTC	< -0.25
LVFSWGLRRYTGWGLD	< -0.25
LVGPTATALQDESLFSEQRV	< -0.25
LVGTSRASLACLPTGLTDNV	< -0.25
LVGVRITCRRRPSKTITESP	< -0.25
LVGYDGYVHRVEANRGSGFR	< -0.25
LVHDKHNPERRSSLTVDTDT	-0.245
LVHGIAGTSKYAIGIRIWGA	< -0.25
LVHLAVWNSEPQGRVHSENR	-0.243
LVHQYATGG	< -0.25
LVIHMRDMQA	< -0.25
LVINSFPGLSEQKTALANHL	< -0.25

Substance	growth estimate
LVIRSMVIFMNRVASQGEKR	< -0.25
LVISLSP	< -0.25
LVIVQYYLPGFVSS	< -0.25
LVKQAVDRVIMPVLVFAYGD	< -0.25
LVKRR	< -0.25
LVKVVRTKSR	< -0.25
LVKYEREAHVRCGCLLIYPV	< -0.25
LVLGRSLVDL	< -0.25
LVLHFGTAFL	< -0.25
LVLLWTALERAFKDIQRLAR	< -0.25
LVLRGLNARSF	< -0.25
LVLT	< -0.25
LVLTRRSTTWLRYSSTQGWK	< -0.25
LVPLDILIRTRRKSGFTSSP	< -0.25
LVPLVRGVQAEPRLRCPISN	< -0.25
LVPRTSSGAYVH	< -0.25
LVPSSARPCAGISSSQ	< -0.25
LVPTPQRDVSPWKAR	-0.246
LVPVFARLQLKSLVLVVRPN	< -0.25
LVQLIESGVSCAPVRKK	< -0.25
LVRAFVPAPSFAFVLSH	< -0.25
LVRCGVVFADSPWNAILSFG	< -0.25
LVREYSGRYLSESVVDGVSW	< -0.25
LVRISCLS	< -0.25
LVS	-0.221 ± 0.046

Some of the entries so far, with bars between the fields.
Substance | growth estimate
LTYAISPARTIRTGH | < -0.25
LTYVAYPTAPTVGGSNVGSL | 0.0084
LVA | < -0.25
LVAGVGGGVLVWCGKSPQDV | < -0.25
LVAPGDRGLLGGRPNLRGSA | < -0.25

More results.

Substance	growth estimate
LVSDTTSCCQGVLMATHLLG	< -0.25
LVSGNAWAAVNKRPFLQRGA	< -0.25
LVSRRRPREAQASTQMVRLT	< -0.25
LVSVARYS	< -0.25
LVSYQRGTASIFLNGISLDP	< -0.25
LVTLSYVSKSFVYHQRSCHA	< -0.25
LVTLVLNLST	< -0.25
LVTNSCQPRKIIGDGVRHVP	< -0.25
LVTS	< -0.25
LVTTAGALSLPSYLRVSLAG	< -0.25
LVVCRKTVAHTRLNNRLIVI	< -0.25
LVVKDKFRVENTVILNIALM	< -0.25
LVVLSASADRYRIHCRAMLR	< -0.25
LVVPGRLLRSLGRSDHERTR	< -0.25
LVVRSCLCHYPC	< -0.25
LVVSGSV	< -0.25
LVWVCGSFQE	< -0.25
LWCCPTYGWVTMRLKYTVSL	< -0.25
LWECSEIGIVDG	< -0.25
LWELI	< -0.25
LWG	< -0.25
LWGALAIGFEISS	< -0.25
LWGANHAVGGNRGVSIVSLY	< -0.25
LWGEVSVMARGAALNSSNIL	< -0.25
LWGFGYMTGPNRINVLLGPC	< -0.25

Substance	growth estimate
LWGGER	< -0.25
LWGNRVGRPAQHREGLGIGG	< -0.25
LWNFIGLHHG	< -0.25
LWPRTQWRPHSSYETGPYKI	< -0.25
LWQIRFL	-0.243
LWR	< -0.25
LWRDRGSSNCTGFEGC	< -0.25
LWRIGLGSSGLARRRKLRLN	-0.055
LWRKGPRRTD	< -0.25
LWTKLCTLIFYGGRFSALSQ	< -0.25
LWVIVWAAYTA	< -0.25
LYACGAIALVREVDLARLA	< -0.25
LYAGTRANSTYVRVHISACG	< -0.25
LYAMGRA	< -0.25
LYARLGEAVLPQRL	< -0.25
LYCLIL	< -0.25
LYCLYWPRQLATTGGFLRRR	< -0.25
LYE	< -0.25
LYESACV	< -0.25
LYGDRTGAESRLTRGTRHGR	< -0.25
LYGRLR	< -0.25

— the supplement of paper PMC5949888
